In PubChem BioAssay AID248 (DTP/NCI, 2004):
The list is a part of this screen's results and no random one: it gathers tests that were run many times, whatever their T/C, doses with no T/C, and many T/C values between a quarter and a half above the control. Other doses and runs of a compound stand elsewhere. T/C: endpoint of the treated group in % of that of the vehicle group. Some doses have a count of surviving animals in place of a T/C: the source files T/C as zero there, which appears to mark a toxic dose or a test without result, not a measured value. Some survivor counts are full or nearly so, which does not show that the dose was tolerated: the source hardly ever lists a survival T/C far under the control, and the zero likely stands for such cases as well. Counts of survivors are from the toxicity check (mostly the fifth day) where no day follows; animals may have died later. Schedules are NCI's codes, read here as Q, the interval in days (D) or hours (H), X, the number of doses. Some entries hold several experiments; the values are given in rising order. Some molecules as drawn cover several salts, stereoisomers or complexes of the source; a dose is that of the sample tested. Where survival is the endpoint, this PubChem deposit counts one and a half times the control or more as active, and values a quarter to a half above the control carry no call in these data; other NCI protocols may use other cut-offs. Some schedules carry Z or #; the key to these is not given. Some T/C values carry the count of animals alive at the toxicity check (mostly the fifth day); where none is given, no animal had died by that day.

Test system: L1210 leukemia ip in BDF1 mice, survival T/C
Test: NCI In Vivo Anticancer Drug Screen. Data for tumor model L1210 Leukemia (intraperitoneal) in B6D2F1 (BDF1) mice
Conditions: T/C endpoint: mean survival time, higher T/C = longer survival
[1] = dose: 100.0 mg/kg/injection, schedule: Q04DX003 (ip), vehicle: Klucel (hydroxypropylcellulose) (HPC)
[2] = dose: 200.0 mg/kg/injection, schedule: Q04DX003 (ip), vehicle: Klucel (hydroxypropylcellulose) (HPC)
[3] = dose: 400.0 mg/kg/injection, schedule: Q04DX003 (ip), vehicle: Klucel (hydroxypropylcellulose) (HPC)
[4] = dose: 100.0 mg/kg/injection, schedule: Q01DX005 (ip), vehicle: saline
[5] = dose: 200.0 mg/kg/injection, schedule: Q01DX005 (ip), vehicle: saline
[6] = dose: 200.0 mg/kg/injection, schedule: Q01DX001 (ip), vehicle: saline with Tween-80
[7] = dose: 200.0 mg/kg/injection, schedule: Q04DX003 (ip), vehicle: saline with Tween-80
[8] = dose: 400.0 mg/kg/injection, schedule: Q01DX001 (ip), vehicle: saline with Tween-80

COc1ccc(/C=C/c2ccc3ccccc3[n+]2C)cc1
survivor count [1]: 4 of 6 and 6 of 6
survivor count [2]: 1 of 6
survivor count [3]: 0 of 6

CN(N)c1nc2c(N)ncnc2n1C1OC(CO)C(O)C1O (stereo not given)
survivor count [4]: 6 of 6
survivor count [5]: 6 of 6

C=CCN(C)/N=N/c1[nH]ncc1C(N)=O
T/C (dose: 22.0 mg/kg/injection, schedule: Q01DX009 (ip), vehicle: saline with Tween-80): 142 % of control
T/C (dose: 33.0 mg/kg/injection, schedule: Q01DX009 (ip), vehicle: saline with Tween-80): 132 % of control
T/C (dose: 100.0 mg/kg/injection, schedule: Q04DX003 (ip), vehicle: saline with Tween-80): 131 and 134 % of control
T/C (dose: 150.0 mg/kg/injection, schedule: Q04DX003 (ip), vehicle: saline with Tween-80): 134 % of control
T/C [6]: 135 % of control
T/C [7]: 133 % of control [5 of 6 alive]
survivor count [8]: 3 of 6

Cc1ccccc1[As](c1ccccc1C)c1ccccc1C
survivor count [7]: 6 of 6
survivor count (dose: 400.0 mg/kg/injection, schedule: Q04DX003 (ip), vehicle: saline with Tween-80): 5 of 6

CNC(=O)C1OC(n2cnc3c(N)ncnc32)C(O)C1O (stereo not given)
survivor count (dose: 1.56 mg/kg/injection, schedule: Q01DX005 (ip), vehicle: saline): 0 of 6
survivor count (dose: 3.12 mg/kg/injection, schedule: Q01DX005 (ip), vehicle: saline): 0 of 6
survivor count (dose: 6.25 mg/kg/injection, schedule: Q01DX005 (ip), vehicle: saline): 0 of 6
survivor count (dose: 12.5 mg/kg/injection, schedule: Q01DX005 (ip), vehicle: saline): 0 of 6
survivor count (dose: 25.0 mg/kg/injection, schedule: Q01DX005 (ip), vehicle: saline): 0 of 6
survivor count (dose: 50.0 mg/kg/injection, schedule: Q01DX005 (ip), vehicle: saline): 0 of 6
survivor count [4]: 0 of 6
survivor count [5]: 0 of 6

NC1CC1c1ccccc1 (stereo not given)
survivor count (dose: 12.5 mg/kg/injection, schedule: Q04DX003 (ip), vehicle: saline): 0 of 6
survivor count (dose: 150.0 mg/kg/injection, schedule: Q01DX009 (ip), vehicle: saline): 0 of 6
survivor count (dose: 200.0 mg/kg/injection, schedule: Q04DX003 (ip), vehicle: saline): 2 of 4 and 3 of 6
survivor count (dose: 225.0 mg/kg/injection, schedule: Q01DX009 (ip), vehicle: saline): 0 of 6
survivor count (dose: 335.0 mg/kg/injection, schedule: Q01DX009 (ip), vehicle: saline): 0 of 6
survivor count (dose: 400.0 mg/kg/injection, schedule: Q04DX003 (ip), vehicle: saline): 1 of 6

O=P(N1CCCCCC1)(N1CC1)N1CC1
T/C (dose: 6.0 mg/kg/injection, schedule: Q01DX Z (ip), vehicle: saline): 135 % of control

[N-]=[N+]=NC1=CC(=O)C(c2ccccc2)=CC1=O
survivor count (dose: 400.0 mg/kg/injection, schedule: Q04DX002 (ip), vehicle: saline with Tween-80): 0 of 3

Nc1nc(N)c2c(Cl)c(CNc3ccc(Cl)c(Cl)c3)ccc2n1
T/C (dose: 6.25 mg/kg/injection, schedule: Q01DX009 (ip), vehicle: saline with Tween-80): 127 % of control
T/C (dose: 12.5 mg/kg/injection, schedule: Q01DX009 (ip), vehicle: water): 141 % of control
T/C (dose: 25.0 mg/kg/injection, schedule: Q01DX009 (ip), vehicle: saline with Tween-80): 140 % of control
T/C (dose: 25.0 mg/kg/injection, schedule: Q01DX009 (ip), vehicle: water): 129 % of control
survivor count (dose: 100.0 mg/kg/injection, schedule: Q01DX009 (ip), vehicle: water): 6 of 6
T/C (dose: 100.0 mg/kg/injection, schedule: Q04DX003 (ip), vehicle: water): 147 % of control
survivor count (dose: 200.0 mg/kg/injection, schedule: Q01DX009 (ip), vehicle: water): 6 of 6
survivor count (dose: 400.0 mg/kg/injection, schedule: Q01DX009 (ip), vehicle: water): 4 of 6
T/C (dose: 400.0 mg/kg/injection, schedule: Q04DX003 (ip), vehicle: water): 147 % of control

Cc1ccc(Br)c([N+](=O)[O-])c1
T/C (dose: 50.0 mg/kg/injection, schedule: Q01DX001 (ip), vehicle: carboxymethylcellulose (CMC)): 125 % of control

O=C(O)c1cc(S(=O)(=O)Cl)cc(S(=O)(=O)Cl)c1
survivor count (dose: 150.0 mg/kg/injection, schedule: Q01DX001 (ip), vehicle: saline): 0 of 6
survivor count (dose: 300.0 mg/kg/injection, schedule: Q01DX001 (ip), vehicle: saline): 1 of 6

O=[N+]([O-])c1cnc(C2=C(O)c3ccccc3CC2)s1
survivor count [6]: 0 of 3
survivor count [8]: 1 of 3

COc1ccc(N)c(CC2c3ccccc3CCN2C)c1 (stereo not given)
survivor count (dose: 200.0 mg/kg/injection, schedule: Q01DX001 (ip), vehicle: carboxymethylcellulose (CMC)): 0 of 4
survivor count (dose: 400.0 mg/kg/injection, schedule: Q01DX001 (ip), vehicle: carboxymethylcellulose (CMC)): 0 of 4

CCOCC[P+](c1ccccc1)(c1ccccc1)c1ccccc1
survivor count (dose: 20.0 mg/kg/injection, schedule: Q01DX015 (ip), vehicle: saline): 5 of 6
survivor count (dose: 40.0 mg/kg/injection, schedule: Q01DX015 (ip), vehicle: saline): 0 of 6
survivor count (dose: 50.0 mg/kg/injection, schedule: Q01DX001 (ip), vehicle: saline): 0 of 4
survivor count (dose: 80.0 mg/kg/injection, schedule: Q01DX001 (ip), vehicle: saline): 2 of 4
survivor count (dose: 80.0 mg/kg/injection, schedule: Q01DX015 (ip), vehicle: saline): 0 of 6
survivor count (dose: 100.0 mg/kg/injection, schedule: Q01DX001 (ip), vehicle: saline): 0 of 4
survivor count (dose: 200.0 mg/kg/injection, schedule: Q01DX001 (ip), vehicle: saline): 0 of 4
survivor count (dose: 400.0 mg/kg/injection, schedule: Q01DX001 (ip), vehicle: saline): 0 of 4

CN(N)P(=S)(c1ccccc1)N(C)N
survivor count (dose: 50.0 mg/kg/injection, schedule: Q04DX003 (ip), vehicle: Klucel (hydroxypropylcellulose) (HPC)): 2 of 6
survivor count [1]: 2 of 6
survivor count [2]: 0 of 6
survivor count [3]: 0 of 6

O=S(=O)(O)NC1CCCCC1
survivor count (dose: 200.0 mg/kg/injection, schedule: Q01DX009 (ip), vehicle: acetone): 2 of 6

CC1(O)c2cccc3c2C2(O)c4c1cccc4C(C)(O)c1cccc(c12)C3(C)O (stereo not given)
survivor count (dose: 400.0 mg/kg/injection, schedule: Q01DX009 (ip), vehicle: saline with Tween-80): 3 of 6

O=c1cc(C(F)(F)F)[nH]c2ccccc12
survivor count (dose: 100.0 mg/kg/injection, schedule: Q04DX002 (ip), vehicle: Klucel (hydroxypropylcellulose) (HPC)): 0 of 3 and 3 of 3
survivor count (dose: 200.0 mg/kg/injection, schedule: Q04DX002 (ip), vehicle: Klucel (hydroxypropylcellulose) (HPC)): 0 of 3
survivor count (dose: 400.0 mg/kg/injection, schedule: Q04DX002 (ip), vehicle: Klucel (hydroxypropylcellulose) (HPC)): 0 of 3

O=C(Nc1ccc(Nc2ccccc2)cc1)Nc1cccc2ccccc12
survivor count [3]: 5 of 6

CC1(c2ccc3ccccc3c2)OC(=O)c2ccccc21 (stereo not given)
survivor count (dose: 100.0 mg/kg/injection, schedule: Q01DX009 (ip), vehicle: saline with Tween-80): 6 of 6
